Experimental data taken from the supplement of paper PMC12823440, “Inhibitors supercharge kinase turnover through native proteolytic circuits” (Nature, 2025).
The list shows a part of the results. The calls rarely recur for the same compound in another form.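 Kinases, fused to nanoluciferase, were expressed in K562 cells; luminescence was measured every 4 h from 2 to 18 h as percent of control (DMSO = 100%, positive control = 0%). A time point is decreased if signal falls significantly (2 sigma). Hits were called by the authors by a rule that is not shown; the count of time points alone does not decide it.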

Amino acid sequences for entries named in this document (tags omitted).
UniProt Q9Y463, whole entry, looked up: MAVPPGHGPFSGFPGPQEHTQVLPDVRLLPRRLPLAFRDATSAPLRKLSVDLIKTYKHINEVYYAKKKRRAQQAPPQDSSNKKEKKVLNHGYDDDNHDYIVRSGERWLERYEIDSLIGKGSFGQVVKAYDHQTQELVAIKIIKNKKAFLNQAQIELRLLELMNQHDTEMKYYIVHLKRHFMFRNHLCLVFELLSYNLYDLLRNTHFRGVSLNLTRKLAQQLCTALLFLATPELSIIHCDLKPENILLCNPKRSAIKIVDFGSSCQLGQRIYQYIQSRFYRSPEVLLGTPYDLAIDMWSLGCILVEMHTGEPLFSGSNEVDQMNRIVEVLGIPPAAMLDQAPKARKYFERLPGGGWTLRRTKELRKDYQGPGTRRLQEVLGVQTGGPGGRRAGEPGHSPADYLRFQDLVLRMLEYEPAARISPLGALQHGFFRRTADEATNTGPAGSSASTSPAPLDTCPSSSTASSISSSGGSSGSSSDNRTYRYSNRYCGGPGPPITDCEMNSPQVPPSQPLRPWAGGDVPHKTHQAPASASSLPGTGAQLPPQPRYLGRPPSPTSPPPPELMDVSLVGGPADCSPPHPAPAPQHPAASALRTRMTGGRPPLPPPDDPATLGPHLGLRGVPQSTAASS

biological target: DYRK1B (UniProt Q9Y463); experiment: kinase-Nluc reporter destabilization hit call (1 = scored as downregulated) (binary); higher = compound decreases kinase abundance; settings: K562; 2-18 h

SMILES	kinase-Nluc reporter destabilization hit call
O=c1cc(O)c2ccccc2o1 [4-Hydroxycoumarin] (10 µM)	inactive: 0
CCCCNc1nc(N)c2[nH]c(=O)n(Cc3ccc(C)nc3)c2n1 (10 µM)	inactive: 0
CCCS(=O)(=O)Nc1ccc(F)c(-n2cc(-c3cncnc3)c3nc(N(C)C4CCN(CC)CC4)ccc32)c1F (2 µM)	inactive: 0
C[C@H]1CC[C@]2(NC1)O[C@H]1C[C@H]3[C@@H]4CC[C@H]5C[C@@H](O[C@@H]6O[C@H](CO)[C@H](O[C@@H]7O[C@H](CO)[C@@H](O)[C@H](O[C@@H]8OC[C@@H](O)[C@H](O)[C@H]8O)[C@H]7O[C@@H]7O[C@H](CO)[C@@H](O)[C@H](O)[C@H]7O)[C@H](O)[C@H]6O)CC[C@]5(C)[C@H]4CC[C@]3(C)[C@H]1[C@@H]2C [Tomatine] (2.5 µM)	inactive: 0
Cc1n[nH]cc1-c1cc2nc([C@@H]3CC4CCN3CC4)[nH]c(=O)c2s1 [Simurosertib] (2.5 µM)	inactive: 0
O=Cc1cn(Cc2ccc(Cl)cc2)c2ccccc12 [Oncrasin-1] (10 µM)	inactive: 0
CC(=O)OC(C)(C)/C=C/C(=O)[C@](C)(O)[C@H]1[C@H](O)C[C@@]2(C)[C@@H]3CC=C4[C@@H](C=C(O)C(=O)C4(C)C)[C@]3(C)C(=O)C[C@]12C [Cucurbitacin E] (2.5 µM)	inactive: 0
C[C@@H]1CC[C@H]2[C@@H](C)C(=O)O[C@@H]3O[C@@]4(C)CC[C@@H]1[C@]32OO4 [Artemisinin] (10 µM)	inactive: 0
COc1ccc2c(c1)/C(=C/c1cnc[nH]1)C(=O)N2 (2.5 µM)	inactive: 0
CC(=O)O[C@H]1[C@H]2[C@@H](OC(=O)Cc3ccccc3)[C@@H](C)C[C@]2(OC(C)=O)C(=O)/C(C)=C/[C@@H]2[C@H](CC[C@@]13CO3)C2(C)C [Euphorbiasteroid] (10 µM)	inactive: 0
O=c1[nH]c2ccccc2n1C1CCN(CCCC(c2ccc(F)cc2)c2ccc(F)cc2)CC1 [Pimozide] (2.5 µM)	inactive: 0
CC(=O)Oc1ccc(/C=C/c2cc(OC(C)=O)cc(OC(C)=O)c2)cc1 [Triacetylresveratrol] (10 µM)	inactive: 0
C/C=C(/C)C(=O)O[C@H]1[C@@H]2[C@H](C)C(=O)O[C@@H]2C[C@@H](C)[C@@H]2C=CC(=O)[C@]21C [Brevilin A] (2.5 µM)	inactive: 0
O=[N+]([O-])/C=C/c1ccc2c(c1)OCO2 (2.5 µM)	inactive: 0
O=C(O)c1nn(Cc2ccc(Cl)cc2Cl)c2ccccc12 [Lonidamine] (10 µM)	inactive: 0
CC(=O)c1c(O)c(C)c(O)c(Cc2c(O)c3c(c(C(=O)/C=C/c4ccccc4)c2O)OC(C)(C)C=C3)c1O [Rottlerin] (2 µM)	inactive: 0
Cn1cc(C2=C(c3cn(C4CCN(Cc5ccccn5)CC4)c4ccccc34)C(=O)NC2=O)c2ccccc21 [Enzastaurin] (10 µM)	inactive: 0
Cc1ccccc1-n1c(Cn2ncc3c(N)ncnc32)nc2cccc(C)c2c1=O (10 µM)	inactive: 0
O=c1[nH]c2ccccc2n1C1CCN(Cc2ccc(-c3[nH]c4cc5ncnc5cc4nc3-c3ccccc3)cc2)CC1 [AKT inhibitor VIII] (2.5 µM)	inactive: 0
C=CC(=O)Nc1ccc2[nH]c(=O)n(C3CCN(Cc4ccc(-c5nc6cc[nH]c(=O)c6cc5-c5ccccc5)cc4)CC3)c2c1 [Borussertib] (10 µM)	inactive: 0
C[S+]([O-])/C=C/CCN=C=S (centres undefined) [Sulforaphene] (10 µM)	inactive: 0
CC1=C[C@]23C(=O)[C@@H](C=C(CO)[C@@H](O)[C@]2(O)[C@H]1O)[C@H]1[C@@H](C[C@H]3C)C1(C)C [Ingenol] (10 µM)	inactive: 0
CCCCCCCCCCCCCCCCOC[C@H](COP(=O)([O-])OCC[N+](C)(C)C)OC(C)=O (10 µM)	inactive: 0
Cc1ccccc1-n1c(Cn2cnc3c(N)ncnc32)nc2cccc(C)c2c1=O (10 µM)	inactive: 0
COc1ccc2c(c1)[nH]c1c(C)nccc12 [Harmine] (10 µM)	inactive: 0
O=C(N[C@@H](COc1ccc2[nH]c(=O)[nH]c2c1)c1ccccc1)c1cccn(Cc2ccc(F)c(F)c2)c1=O (2.5 µM)	inactive: 0
COc1cc2c(cc1F)C(c1ccccc1Cl)=Nc1c(n[nH]c1C)N2 (0.5 µM)	inactive: 0
N#CC(C#N)=Cc1ccc(O)c(O)c1 [Tyrphostin 23] (10 µM)	inactive: 0
N#CC(C#N)=NNc1cccc(Cl)c1 (2.5 µM)	inactive: 0

Quoted from the listing:
Entry of O=Cc1cn(Cc2ccc(Cl)cc2)c2ccccc12 [Oncrasin-1] (10 µM) under kinase-Nluc reporter destabilization hit call: inactive: 0
Entry of C[C@@H]1CC[C@H]2[C@@H](C)C(=O)O[C@@H]3O[C@@]4(C)CC[C@@H]1[C@]32OO4 [Artemisinin] (10 µM) under kinase-Nluc reporter destabilization hit call: inactive: 0
